In all, about 52,000 sequences went through this assay and about 210 (0.4%) were called active.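 Rule for the calls: active = gene whose silencing raises cell survival under the drug, median off-target-corrected z-score across its silencing RNAs 2 or more; inactive = the rest.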 The list shows a part of the results.
Assay: Resistance to Poly (ADP-Ribose) Polymerase inhibitor: Gene Identification via Genome-wide siRNA Screen
Details: mouse BRCA2 R2336H ES cells, olaparib, CellTiter-Glo viability; active compounds read high
Summary of the method: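 Mouse BRCA2 R2336H ES cells were reverse-transfected with siRNA (20 nM final), treated at 48 h with 500 nM olaparib, and read by CellTiter-Glo after 72 h. Scores: MAD-based z per siRNA, median per gene, seed off-target correction.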
With GGAGCUCGUGAAGCUGUUUTT against Stk19 the z-score was inactive: 2.44. For GGGUCCACAUAUAAUUACCTT against Slc36a3, the z-score was inactive: -0.163. With GGACAUCUUGCUGCUUCUATT against Srebf1 the z-score was inactive: 0.309. For “GGAUAACCGCCAAUAAAAATT against 5730528L13Rik”, the z-score was inactive: 1.7. With “GGAACAGUCACAGACAGCUTT against 9030624J02Rik” the z-score was inactive: -0.129. With GAUAAAAUGGGCAUUACCUTT against Olfr666 the z-score was inactive: -0.345. With GGUACACAAACAAGUAUUCTT against Eif3s7 the z-score was inactive: 0.58. With GGCAGCAGAAGCUUAACAATT against Cadps2 the z-score was inactive: -0.797. For GGAAUUCCUAAUUACGAAUTT against Ufd1l, the z-score was inactive: -0.445. With “GGUCCUGAGUGUCAAGUUUTT against E430036I04Rik” the z-score was inactive: 1.17. With GGCUGAAGUAAGGUUUCACTT against Ict1 the z-score was inactive: 0.234. With GCUAAUGACACCACUUUUGTT against Aldh9a1 the z-score was inactive: -0.322. In the case of GGAAACAACAACUGUCACATT against Defb40, the z-score is reported as inactive: -0.993. With GGCAGAGCCUGGACAAAUATT against Slc6a4 the z-score was inactive: -1.41. In the case of GGGAGUUGACUAGAAGUAATT against Bag1, the z-score is reported as inactive: -1.81. With GGCAUGUCUUCACAGGUGATT against Snrk the z-score was inactive: -0.253. For GGAUAAAGAAGGUAUUCUUTT against Mccc1, the z-score was inactive: 0.803. With “CCUAUCAUGGCAGAAUACUTT against 1300017J02Rik” the z-score was inactive: 0.116. In the case of “GGACCAGAUAAUAAAGGAATT against 1110032D12Rik”, the z-score is reported as inactive: -0.275. For GGUGGUGGCUGUGUAUAACTT against Cdh15, the z-score was inactive: 0.0345. In the case of “GGGCUCAUGAACUAAAAUUTT against 5830404H04Rik”, the z-score is reported as inactive: -0.664. With GCAAUUGAGUCCAUAUAGCTT against Jtb the z-score was inactive: 0.78. For GGCCUUAAAAUACCUUUGATT against Srpx, the z-score was inactive: -1.66. With GGAAGGUUUAUUCUUGGAUTT against Shcbp1 the z-score was inactive: 0.0859. In the case of “GCUACUGGGAAUCUUUCAATT against 5730596B20Rik”, the z-score is reported as inactive: -0.659. In the case of GCUUAUGCCAGUCUGUCAUTT against Hs1bp1, the z-score is reported as inactive: 0.287. With “GGUUAAAGACAUGUACUAGTT against 9930022D16Rik” the z-score was inactive: -0.0934. With “GCGAAAUUCUGAAAAAGCCTT against 4833417A11Rik” the z-score was inactive: 0.68. In the case of “GCGAAUCUCCUCCUAGUGATT against E130310N06”, the z-score is reported as inactive: -0.203. With CGUACUCCAACAACACUUUTT against Pdzk8 the z-score was inactive: 0.238. In the case of CCUACUUUAUUAUGUGUCATT against Mmp10, the z-score is reported as inactive: 0.162. For GGAAACCACUAUCCACCUUTT against Ubd, the z-score was inactive: 0.123. In the case of GGGUUUCAUACCCACUGCUTT against Cntnap1, the z-score is reported as inactive: -1.2. For GGUGUUUCGCUUGGAGGUGTT against Star, the z-score was inactive: -0.998. For GGAGGAGCUGGAGAAAACATT against Psd4, the z-score was inactive: -2.7. In the case of CCAGAUAUGAAGCUGCUCCTT against Rab28, the z-score is reported as inactive: -0.202. With “GCCACUACGCUCUACUGCATT against C230096C10Rik” the z-score was inactive: 0.367. With GGUGAUUGUCUGGGAUUCCTT against Gnb5 the z-score was inactive: 0.666. In the case of GCAGGGUACUGGCUAAAUATT against Tnfrsf5, the z-score is reported as inactive: -0.562. For GGAACAUCCAAAGCUCCACTT against LOC209387, the z-score was inactive: -0.295. For GCCUUUAGCAAAGUGGUUCTT against Rragd, the z-score was inactive: -0.0217. With GGAACUUGCCAGAGAUACATT against Gak the z-score was inactive: 1.05. With UUCCAUUUUUUGGAGACCATT against AI746432 the z-score was inactive: -0.59. With GCAUUGGAUACCCUCAGUATT against Krtap16-1 the z-score was inactive: -1.86. In the case of GGACCAAGAACCAGCAAUGTT against Defb6, the z-score is reported as inactive: 0.932. For GCCGUCAGAUGACAACUAGTT against Lta, the z-score was inactive: -0.668. With “GGAGAAGGUCAUUCUGAUGTT against 4932439K10Rik” the z-score was inactive: 0.852. In the case of GGCCUACCACCUUCAGAAGTT against Rpl37, the z-score is reported as inactive: -2.25. With CGAGGGUGAAAGCUCUUUUTT against Zfp248 the z-score was inactive: -1.45. For GGUAUACCACUAUUCUCACTT against Olfr649, the z-score was inactive: -0.344. In the case of GGUUAGAAUAUGCAGAACATT against Arntl, the z-score is reported as inactive: -2.52. For GGAAUCCUUUAUGGUUUUCTT against Pald, the z-score was inactive: -0.306.

— PubChem BioAssay AID1347423 (Functional Genomics Laboratory (NCATS/FGL), 2020)
